Data reported in publication PMC6868227.
No constants are given. Whether binding was seen depends on the method and setting. Binding seen in cells or lysates may run through a third protein. Some binding calls cover weakened binding; strength is not graded here. For some assays here: Sequences can lack the tags named with a protein. One block for each molecule: values may come before it.

By UniProt entry, the sequences of proteins in these tests, tags left out.
UniProt P40763: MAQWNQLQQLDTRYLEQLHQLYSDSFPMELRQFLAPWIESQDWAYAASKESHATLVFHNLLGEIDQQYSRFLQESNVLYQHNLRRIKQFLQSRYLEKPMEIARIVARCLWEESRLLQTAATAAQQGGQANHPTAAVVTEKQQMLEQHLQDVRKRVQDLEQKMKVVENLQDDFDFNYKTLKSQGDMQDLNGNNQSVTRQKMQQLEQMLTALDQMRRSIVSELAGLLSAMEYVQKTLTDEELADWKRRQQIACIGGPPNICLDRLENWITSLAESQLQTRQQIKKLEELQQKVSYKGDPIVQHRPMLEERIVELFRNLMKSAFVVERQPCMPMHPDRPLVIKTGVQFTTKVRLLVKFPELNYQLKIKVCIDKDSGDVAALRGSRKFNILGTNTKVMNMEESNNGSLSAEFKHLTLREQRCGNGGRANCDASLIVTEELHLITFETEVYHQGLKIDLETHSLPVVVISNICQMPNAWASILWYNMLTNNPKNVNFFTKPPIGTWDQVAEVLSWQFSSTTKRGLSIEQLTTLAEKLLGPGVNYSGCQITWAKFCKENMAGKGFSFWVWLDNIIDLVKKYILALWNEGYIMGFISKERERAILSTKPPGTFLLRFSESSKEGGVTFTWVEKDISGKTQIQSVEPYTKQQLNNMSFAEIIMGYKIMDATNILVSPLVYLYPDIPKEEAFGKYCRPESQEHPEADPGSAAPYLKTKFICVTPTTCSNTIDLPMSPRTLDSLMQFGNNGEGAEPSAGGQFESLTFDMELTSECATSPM

Columns and labels:
VGLL4-Flag = biological target: T1, VGLL4-Flag (UniProt Q14135); assay: co-IP; IP with a Flag-tag antibody from RIPA lysates of VGLL4-Flag-overexpressing MDA-MB-231 cells transfected with VGLL4 siRNA or NC; blot for STAT3
T1 sequence: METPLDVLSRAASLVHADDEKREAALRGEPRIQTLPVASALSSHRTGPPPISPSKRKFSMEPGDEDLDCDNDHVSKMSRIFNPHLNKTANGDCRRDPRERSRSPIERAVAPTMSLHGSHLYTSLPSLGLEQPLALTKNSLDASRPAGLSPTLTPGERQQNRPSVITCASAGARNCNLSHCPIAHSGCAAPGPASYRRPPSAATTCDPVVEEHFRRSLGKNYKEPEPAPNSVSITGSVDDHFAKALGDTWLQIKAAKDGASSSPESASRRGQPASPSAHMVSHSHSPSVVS

[1] = biological target: T2, VGLL4-BirA*-HA (full-length VGLL4 amino acid sequence fused with BirA*) (UniProt Q14135); assay: co-IP; IP with an HA-tag antibody from RIPA lysates of MCF-10A cells stably expressing the BirA*-HA constructs, protein A/G plus-agarose, 4 °C overnight; blot for STAT3
T2 sequence: T1 sequence

[2] = biological target: STAT3 (endogenous, MCF-10A cells) (human (endogenous in MCF-10A)) (UniProt P40763); assay: co-IP; IP with a STAT3 antibody from RIPA lysate of MCF-10A cells overexpressing VGLL4-BirA*-HA, protein A/G plus-agarose, 4 °C overnight; blot for VGLL4
[3] = biological target: STAT3 (endogenous, MDA-MB-231 cells) (human (endogenous in MDA-MB-231)) (UniProt P40763); assay: co-IP; IP with a STAT3 antibody from RIPA lysates of VGLL4-Flag-overexpressing MDA-MB-231 cells transfected with VGLL4 siRNA or NC; blot for exogenous VGLL4
[4] = biological target: STAT3 (endogenous, MDA-MB-231 cells) (human (endogenous in MDA-MB-231)) (UniProt P40763); assay: co-IP; IP with a STAT3 antibody from RIPA lysate of normal MDA-MB-231 cells (both proteins endogenous), protein A/G plus-agarose, 4 °C overnight; blot for VGLL4

binding (VGLL4-Flag): binds
Molecule: STAT3 (endogenous, MDA-MB-231 cells) (from UniProt P40763 1-770)

binding [2]: binds
B1: VGLL4-BirA*-HA (full-length VGLL4 amino acid sequence fused with BirA*) (protein, UniProt Q14135 1-290)
chain: T1 sequence

Second part, the molecule before the results:

Molecule: STAT3 (endogenous, MCF-10A cells) (from UniProt P40763 1-770)
binding [1]: binds

B2: VGLL4-Flag (protein, UniProt Q14135 1-290)
chain: T1 sequence
binding [3]: binds

B3: VGLL4 (endogenous, MDA-MB-231 cells) (protein, UniProt Q14135 1-290)
chain: T1 sequence
binding [4]: binds
